{"source": "patent US20250114355A1", "about": "“TREATING LIVER DISEASE” (Mayo Foundation for Medical Education and Research, priority 2021, published 2025)", "test_system": "human hepatic sinusoidal endothelial cells (HHSEC)", "experiment": "In vitro LPS-induced inflammation model, qPCR of CXCL1 and CCL2 in HHSEC", "assay_type": "cell-based", "details": "LPS 200 ng/mL, inhibitor 0.31, 1.25, 5 μM, dose dependent reduction", "note": "Some of these results come from one statement about several compounds together."}
{"molecule": "CCc1cc(C)cc(Oc2nccc(-c3c(-c4ccc(C(F)(F)F)cc4)ncn3C3CCNCC3)n2)c1", "note": "[8-247]", "values": [{"measurement": "CXCL1 and CCL2 chemokine expression compared to the LPS control", "result": "below 50%"}]}
{"molecule": "Cc1cc(C)cc(Oc2cccc(-c3c(C)nnn3C3CCNCC3)n2)c1", "note": "[AC4118]", "values": [{"measurement": "CXCL1 and CCL2 chemokine expression compared to the LPS control", "result": "below 50%"}]}
{"molecule": "Cc1cc(C)cc(Oc2cccc(-c3c(C)nnn3C3CCN(CCN(C)C)CC3)n2)c1", "note": "[AC6027]", "values": [{"measurement": "CXCL1 and CCL2 chemokine expression compared to the LPS control", "result": "below 50%"}]}
{"molecule": "Cc1ccc(C(C)C)cc1Oc1nccc(-c2c(-c3ccc(C(F)(F)F)cc3)ncn2[C@H]2CCN(CCN(C)C)C2)n1", "note": "[M-1-151]", "values": [{"measurement": "CXCL1 and CCL2 chemokine expression compared to the LPS control", "result": "below 50%"}]}
